# This is one part of the list.
# Protein sequences, listed by entry. Tags and fused reporters are not part of them.
# UniProt Q0JBA9, entry or part of it: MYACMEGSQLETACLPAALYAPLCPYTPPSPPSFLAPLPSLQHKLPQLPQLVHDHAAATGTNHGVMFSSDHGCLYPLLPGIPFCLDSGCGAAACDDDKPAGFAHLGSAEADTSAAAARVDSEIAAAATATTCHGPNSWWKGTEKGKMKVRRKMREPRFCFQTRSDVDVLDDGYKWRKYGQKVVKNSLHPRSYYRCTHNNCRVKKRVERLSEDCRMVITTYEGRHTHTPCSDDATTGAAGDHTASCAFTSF
# Biological target: OsWRKY34 (Oryza sativa, UniProt Q0JBA9 1-250)
# Test: protein-binding microarray (RPBM); PBS, 2% BSA, 51.3 ng/ul salmon testes DNA, 50 uM zinc acetate, 200 nM TF, 25 C, 1 h; high values mean tight binding
# Conditions: protein: recombinant; tags: N-terminal polyhistidine and DsRed monomer fusion (pET32a); label: CyDye5-dUTP incorporated in the synthesized complementary strand; 3' TTTTT single-stranded linker to array surface; dsDNA, one strand shown
# Method in brief: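 Ni–NTA purification followed expression in E. coli BL21-CodonPlus of transcription factors fused N-terminally to a polyhistidine tag and DsRed. At 200 nM in PBS with 2% BSA, salmon testes DNA and 50 µM zinc acetate, the protein was incubated for 1 h at 25 °C with a custom Agilent array that had been primer-extended with Cy5-dUTP and blocked with 2% BSA. After washing, the array was read on an Axon 4000B scanner. The binding signal is per-feature fluorescence intensity in arbitrary units.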
row,Sequence,binding signal
1,TGGACCAAATGGCACCCGCTACCTTCTTGGCTTGACGTTACGGAGTCACCTAGTGCAG,8170 fluorescence intensity (a.u.)
2,CACTCGATTGCGCACGAATTAGTCTACTACTCCTTAGGTTCGGAGTCACCTAGTGCAG,8460 fluorescence intensity (a.u.)
3,TCTTTTTACGTGCCTTTTATCTCTCCCTTCACATAAGCACCGGAGTCACCTAGTGCAG,8350 fluorescence intensity (a.u.)
4,TCACTGCCACCACCACTATTTTCTTTGAAGTAGTACAGACCGGAGTCACCTAGTGCAG,8580 fluorescence intensity (a.u.)
5,ATAATCATTTCTATGTTTTTTTTCTAAATGTGCGTATTGACGGAGTCACCTAGTGCAG,8150 fluorescence intensity (a.u.)
6,CATATACTCCCTCCGTTTTTTAATAGATGACGCCGTTGACCGGAGTCACCTAGTGCAG,12300 fluorescence intensity (a.u.)
7,CTCTTCATCCAGCTCACTGCATAATCACACACTAATTAACCGGAGTCACCTAGTGCAG,9380 fluorescence intensity (a.u.)
8,TTCACATTGACTCCCTTAACTACTGATGCGAATCAGATTCCGGAGTCACCTAGTGCAG,8270 fluorescence intensity (a.u.)
9,TTGCTTTGCCATGTTTCTTCTACTTTCCCCAAAACACCGTCGGAGTCACCTAGTGCAG,8330 fluorescence intensity (a.u.)
10,GTACTCTGTCACTGCTTTTTCTTGTAGTGAATTCCCACTTCGGAGTCACCTAGTGCAG,8480 fluorescence intensity (a.u.)
11,TCGTCGCACTCACTGCCGCCGTGCCGCTTGCGTCGCGCTCCGGAGTCACCTAGTGCAG,8360 fluorescence intensity (a.u.)
12,GCCTATTAGCCCCACCCACTTAGTTGTATGGAGTTTTGTTCGGAGTCACCTAGTGCAG,9160 fluorescence intensity (a.u.)
13,CATGCCATCTCCAAAAGTCCACTCCTCGCCTTCGTTTCTCCGGAGTCACCTAGTGCAG,11900 fluorescence intensity (a.u.)
14,CGTCCAGTCCGCTCCCTCCCTCATTCATTCGGTTCGGTAACGGAGTCACCTAGTGCAG,8870 fluorescence intensity (a.u.)
15,TTATTATCTACAGTACTTTAATCACAACTTTTCGTTTTTTCGGAGTCACCTAGTGCAG,8940 fluorescence intensity (a.u.)
16,CTTTTCTCTGACCTTTTCTTCTCTAGACCTTGAAACAACACGGAGTCACCTAGTGCAG,9460 fluorescence intensity (a.u.)
17,TCTGAAACACACGCATAACGCATTGACCGCGATCCGCTCCCGGAGTCACCTAGTGCAG,9460 fluorescence intensity (a.u.)
18,TCCAATTTGTCGTGTCAATTCTGAGTTCTTGGCCCATTCACGGAGTCACCTAGTGCAG,12300 fluorescence intensity (a.u.)
19,CGTGCATCAACTCTAGCCTTAGTATCCCGCATGATATCTGCGGAGTCACCTAGTGCAG,9490 fluorescence intensity (a.u.)
20,ATGCGCATCCTCTTCCTCATCTCTCTCTACCCACGCATGCCGGAGTCACCTAGTGCAG,8900 fluorescence intensity (a.u.)
21,GCATATGACCTCCCAACATCTTCTTCCACGCATCCTCCTTCGGAGTCACCTAGTGCAG,8160 fluorescence intensity (a.u.)

row,Sequence,binding signal
1,TTATGCAGTCGACTGCACCGTGTGCCATTGTCACTGACATCGGAGTCACCTAGTGCAG,10800 fluorescence intensity (a.u.)
2,AGCTTTCTATTTTGGTTTGTTTATAGACTATGTTATGCATCGGAGTCACCTAGTGCAG,8990 fluorescence intensity (a.u.)
3,CCTGCTGCTTCTTCGCCACCTGCGCCGAGATCTCCCGCGCCGGAGTCACCTAGTGCAG,11300 fluorescence intensity (a.u.)
4,TAACCGCGCCCTCTTTGAACGCGGGAGCTTGGACTTTGACCGGAGTCACCTAGTGCAG,9020 fluorescence intensity (a.u.)
5,GGAGTACTGCCGATGCATGGTGGGCTGGGGCTGCTGGGAGCGGAGTCACCTAGTGCAG,8200 fluorescence intensity (a.u.)
6,GCTTCACCACACCATGATCCTGCCTCATCTCTGACAGCTCCGGAGTCACCTAGTGCAG,13600 fluorescence intensity (a.u.)
7,GCGCAAACCGATCGATCCATCCATCGTCTACCTGTACGTACGGAGTCACCTAGTGCAG,8440 fluorescence intensity (a.u.)
8,TAGCAACTCCGTTCTTTTTCTTCTTTTCTCTCACTCACTCCGGAGTCACCTAGTGCAG,8360 fluorescence intensity (a.u.)
9,TCTTTCTTCTCCTCGAGTCTGTCGATCTCCCTGCTTTTCCCGGAGTCACCTAGTGCAG,10100 fluorescence intensity (a.u.)
10,GGCTCTTAATACCAGTGTATCTACCGGCGCAAGTATCAAACGGAGTCACCTAGTGCAG,9190 fluorescence intensity (a.u.)
11,GAGTTCTTTTTTCCCCGTGGCATGGTGACGCCAATGCTTCCGGAGTCACCTAGTGCAG,8070 fluorescence intensity (a.u.)
12,CCCAACTACCAAACCAAACTGTTGCATTTGCCGCTGCGACCGGAGTCACCTAGTGCAG,8520 fluorescence intensity (a.u.)
13,ATCTTATGGTGTATTTTTTTTTTCTCCGGTGCAGGTTGGTCGGAGTCACCTAGTGCAG,8260 fluorescence intensity (a.u.)
14,CTAACCTTCCGTGTCCAACTTTGACTGTCCGTCTTATATGCGGAGTCACCTAGTGCAG,9050 fluorescence intensity (a.u.)
15,TGAAATGCATTCTAATTTGCCTTTTCTTTTCTTTTTTTTTCGGAGTCACCTAGTGCAG,9010 fluorescence intensity (a.u.)
16,CCGCTCGCCGCTAGCTCTCGCGTCGCCACCGTTTAATCCTCGGAGTCACCTAGTGCAG,10100 fluorescence intensity (a.u.)
17,AATATATTAGGGCATTGTTTAGTTCCAAACTTTTTCTTTACGGAGTCACCTAGTGCAG,9470 fluorescence intensity (a.u.)
18,AGCTCTTTTCTGATTTAGATATAATTTTTACGTCGGTTTTCGGAGTCACCTAGTGCAG,8080 fluorescence intensity (a.u.)
19,CTGTTTTGTATCTTTTTATTTTTATTTTTTATCCTTTTTTCGGAGTCACCTAGTGCAG,12200 fluorescence intensity (a.u.)
20,GATTGTGTCATAGTTCTATAGTTGGAATTTGGTTTATCGTCGGAGTCACCTAGTGCAG,8080 fluorescence intensity (a.u.)
21,TTATGGAAGTCGGACTAAACGGACTTCTTTTTTGTTTTTTCGGAGTCACCTAGTGCAG,8580 fluorescence intensity (a.u.)

# Fetched one by one from above:
row,Sequence,binding signal
13,ATCTTATGGTGTATTTTTTTTTTCTCCGGTGCAGGTTGGTCGGAGTCACCTAGTGCAG,8260 fluorescence intensity (a.u.)
14,CGTCCAGTCCGCTCCCTCCCTCATTCATTCGGTTCGGTAACGGAGTCACCTAGTGCAG,8870 fluorescence intensity (a.u.)
7,CTCTTCATCCAGCTCACTGCATAATCACACACTAATTAACCGGAGTCACCTAGTGCAG,9380 fluorescence intensity (a.u.)
